In PMC10521530:
These are yes or no findings as the source states them, for the method shown. In cells and extracts the contact can be indirect. Some binding calls cover weakened binding; strength is not graded here. Each block holds one molecule with its values, some of them ahead of it.

What was measured:
[1] = target: T1, Transmembrane and tetratricopeptide repeat (TPR) repeat-containing protein 3 (TMTC3) (human (endogenous in KYSE450, KYSE410, KYSE180)) (UniProt Q6ZXV5); test: co-IP; endogenous proteins in lysates of KYSE410 and KYSE450 cells; anti-TMTC3 or anti-IMPDH2 antibody or IgG, 4 °C for 12 h, protein A/G beads
T1 sequence: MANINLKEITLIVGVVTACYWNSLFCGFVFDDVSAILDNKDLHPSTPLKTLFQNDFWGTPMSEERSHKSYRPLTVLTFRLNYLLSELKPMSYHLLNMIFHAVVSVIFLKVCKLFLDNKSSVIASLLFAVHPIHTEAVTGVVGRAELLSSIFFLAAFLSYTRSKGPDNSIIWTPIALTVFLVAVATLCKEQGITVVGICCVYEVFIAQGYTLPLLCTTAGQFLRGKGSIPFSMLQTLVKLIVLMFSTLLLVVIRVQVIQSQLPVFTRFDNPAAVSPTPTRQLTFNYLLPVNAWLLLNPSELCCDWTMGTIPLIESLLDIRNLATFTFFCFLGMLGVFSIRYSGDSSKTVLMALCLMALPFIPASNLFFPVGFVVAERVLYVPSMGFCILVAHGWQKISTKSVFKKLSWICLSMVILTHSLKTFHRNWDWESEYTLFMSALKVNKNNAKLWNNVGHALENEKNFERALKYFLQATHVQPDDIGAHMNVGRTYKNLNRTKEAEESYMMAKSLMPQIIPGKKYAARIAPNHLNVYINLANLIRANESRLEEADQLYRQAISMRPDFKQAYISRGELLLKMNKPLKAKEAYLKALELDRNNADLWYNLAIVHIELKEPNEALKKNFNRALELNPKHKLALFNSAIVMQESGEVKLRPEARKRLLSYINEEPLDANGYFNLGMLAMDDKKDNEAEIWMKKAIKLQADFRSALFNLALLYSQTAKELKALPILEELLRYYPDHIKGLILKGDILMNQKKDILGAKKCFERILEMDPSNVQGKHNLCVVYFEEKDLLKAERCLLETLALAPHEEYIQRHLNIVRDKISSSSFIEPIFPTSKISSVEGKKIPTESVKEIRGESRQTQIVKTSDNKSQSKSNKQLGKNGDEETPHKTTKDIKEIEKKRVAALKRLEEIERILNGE

[2] = target: T1, Transmembrane and tetratricopeptide repeat (TPR) repeat-containing protein 3 (TMTC3) (human (endogenous in KYSE450, KYSE410, KYSE180)); test: co-IP; KYSE450 and KYSE180 cells transfected with Flag-tagged full-length or truncated IMPDH2 plasmids; immunoprecipitation with anti-TMTC3 antibody on protein A/G agarose beads, immunoblotting with anti-Flag antibody
[3] = target: inosine-5'-monophosphate dehydrogenase 2 (IMPDH2) (human (endogenous in KYSE450, KYSE410)) (UniProt P12268); test: co-IP; endogenous proteins in lysates of KYSE410 and KYSE450 cells; anti-TMTC3 or anti-IMPDH2 antibody or IgG, 4 °C for 12 h, protein A/G beads

binding [1]: binds
Molecule: inosine-5'-monophosphate dehydrogenase 2 (IMPDH2) (from UniProt P12268 1-514) (enzyme)

binding [2]: binds
Molecule: Flag-tagged full-length IMPDH2 (from UniProt P12268 1-514) (enzyme)

binding [3]: binds
B1: Transmembrane and tetratricopeptide repeat (TPR) repeat-containing protein 3 (TMTC3) (protein, UniProt Q6ZXV5 1-915)
chain: MANINLKEITLIVGVVTACYWNSLFCGFVFDDVSAILDNKDLHPSTPLKTLFQNDFWGTPMSEERSHKSYRPLTVLTFRLNYLLSELKPMSYHLLNMIFHAVVSVIFLKVCKLFLDNKSSVIASLLFAVHPIHTEAVTGVVGRAELLSSIFFLAAFLSYTRSKGPDNSIIWTPIALTVFLVAVATLCKEQGITVVGICCVYEVFIAQGYTLPLLCTTAGQFLRGKGSIPFSMLQTLVKLIVLMFSTLLLVVIRVQVIQSQLPVFTRFDNPAAVSPTPTRQLTFNYLLPVNAWLLLNPSELCCDWTMGTIPLIESLLDIRNLATFTFFCFLGMLGVFSIRYSGDSSKTVLMALCLMALPFIPASNLFFPVGFVVAERVLYVPSMGFCILVAHGWQKISTKSVFKKLSWICLSMVILTHSLKTFHRNWDWESEYTLFMSALKVNKNNAKLWNNVGHALENEKNFERALKYFLQATHVQPDDIGAHMNVGRTYKNLNRTKEAEESYMMAKSLMPQIIPGKKYAARIAPNHLNVYINLANLIRANESRLEEADQLYRQAISMRPDFKQAYISRGELLLKMNKPLKAKEAYLKALELDRNNADLWYNLAIVHIELKEPNEALKKNFNRALELNPKHKLALFNSAIVMQESGEVKLRPEARKRLLSYINEEPLDANGYFNLGMLAMDDKKDNEAEIWMKKAIKLQADFRSALFNLALLYSQTAKELKALPILEELLRYYPDHIKGLILKGDILMNQKKDILGAKKCFERILEMDPSNVQGKHNLCVVYFEEKDLLKAERCLLETLALAPHEEYIQRHLNIVRDKISSSSFIEPIFPTSKISSVEGKKIPTESVKEIRGESRQTQIVKTSDNKSQSKSNKQLGKNGDEETPHKTTKDIKEIEKKRVAALKRLEEIERILNGE
